PubChem BioAssay AID1053208, Peter MacCallum Cancer Centre – 2014
In all, the deposit lists about 17,000 reagents; shown is a part drawn at random. Over the whole deposit, 788 (4.7%) got an active call. 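Calls rest on z-score classes alone; an extra cut-off of viability at most 70% of control was not applied to them.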

Screen: 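Genes whose silencing cuts survival of bone tumour cells only with doxorubicin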 (primary screen)
System: mouse osteosarcoma cells, early-passage culture from an engineered mouse model of fibroblastic bone tumour
Knock-down reagent: siRNA pool against mouse genes, 40 nM
Time to read-out: about 120 h (48 h before drug, then 72 h with drug)
Challenge: doxorubicin 100 nM for 72 h, roughly 30-40% inhibitory dose
Measured: 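Luminescent ATP signal taken as viability with or without 100 nM doxorubicin for 72 h; mean of two wells set against non-targeting siRNA and turned into robust z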
Reading the numbers: viability z-score with doxorubicin and doxorubicin viability vs non-targeting: higher = more viable cells under doxorubicin; viability z-score without drug: higher = more viable cells with knock-down alone; z-score of drug to no-drug ratio: higher = less drug sensitisation by knock-down
Rule for the call: 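a pool counts as active when its viability z-score with doxorubicin is -2 or below and its z-score without drug lies between -2 and 2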

| gene knocked down | combined z-score class | viability z-score with doxorubicin | viability z-score without drug | z-score of drug to no-drug ratio | doxorubicin viability vs non-targeting | call |
| --- | --- | --- | --- | --- | --- | --- |
| Tango6 (GeneID 272538) | no change with or without drug | -0.34 | -0.51 | 0.11 | 0.91 | inactive |
| En2 (GeneID 13799) | no change with or without drug | -0.67 | 0.51 | -0.9 | 0.88 | inactive |
| Rtp4 (GeneID 67775) | no change with or without drug | 0.34 | 0.67 | 0 | 0.97 | inactive |
| Usp49 (GeneID 224836) | no change with or without drug | 0 | 1.52 | -0.9 | 0.94 | inactive |
| Far2 (GeneID 330450) | high cell count without drug only | 1.8 | 2.19 | 0.45 | 1.1 | inactive |
| Prss50 (GeneID 235631) | low cell count with doxorubicin only | -2.25 | -1.18 | -1.57 | 0.74 | active |
| Pcbp1 (GeneID 23983) | no change with or without drug | -0.9 | -1.18 | 0 | 0.86 | inactive |
| Als2 (GeneID 74018) | no change with or without drug | 0.56 | -0.51 | 1.12 | 0.99 | inactive |
| 4931403M11Rik (GeneID 70955) | no change with or without drug | 0.34 | -1.35 | 1.46 | 0.97 | inactive |
| Sae1 (GeneID 56459) | no change with or without drug | 0 | 0.34 | -0.11 | 0.94 | inactive |
| 2310067E19Rik (GeneID 76455) | no change with or without drug | 0.45 | -0.17 | 0.67 | 0.98 | inactive |
| Or8s8 (GeneID 258277) | no change with or without drug | -1.12 | -1.52 | 0 | 0.84 | inactive |
| Smarcb1 (GeneID 20587) | no change with or without drug | 0.45 | 1.35 | -0.34 | 0.98 | inactive |
| Dcn (GeneID 13179) | high cell count with and without drug | 2.25 | 2.19 | 0.9 | 1.14 | inactive |
| Arpp19 (GeneID 59046) | high cell count without drug only | 1.8 | 2.02 | 0.56 | 1.1 | inactive |
| Ccdc159 (GeneID 67119) | no change with or without drug | 0.56 | 1.01 | 0 | 0.99 | inactive |
| Frg1 (GeneID 14300) | no change with or without drug | -0.79 | 0.51 | -1.01 | 0.87 | inactive |
| Taf11 (GeneID 68776) | no change with or without drug | 0.9 | 0.17 | 0.9 | 1.02 | inactive |
| Usp8 (GeneID 84092) | no change with or without drug | -1.69 | -0.17 | -1.57 | 0.79 | inactive |
| Snx17 (GeneID 266781) | no change with or without drug | -1.57 | -0.51 | -1.24 | 0.8 | inactive |

3 entries from above, reformatted.
{"gene knocked down": "Ccdc159 (GeneID 67119)", "combined z-score class": "no change with or without drug", "viability z-score with doxorubicin": 0.56, "viability z-score without drug": 1.01, "z-score of drug to no-drug ratio": 0, "doxorubicin viability vs non-targeting": 0.99, "call": "inactive"}
{"gene knocked down": "Frg1 (GeneID 14300)", "combined z-score class": "no change with or without drug", "viability z-score with doxorubicin": -0.79, "viability z-score without drug": 0.51, "z-score of drug to no-drug ratio": -1.01, "doxorubicin viability vs non-targeting": 0.87, "call": "inactive"}
{"gene knocked down": "Taf11 (GeneID 68776)", "combined z-score class": "no change with or without drug", "viability z-score with doxorubicin": 0.9, "viability z-score without drug": 0.17, "z-score of drug to no-drug ratio": 0.9, "doxorubicin viability vs non-targeting": 1.02, "call": "inactive"}
